{"source": "PubChem BioAssay AID1224826 | NIAID | 2016", "test": "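Regulators of Tlr4 signalling leading to Tnf-alpha expression in macrophages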 (primary screen)", "system": "RAW264.7 G9 macrophages from mouse bearing reporters for p65 (GFP) and the Tnf promoter (mCherry)", "knock-down reagent": "siRNA pool against mouse genes, 100 nM", "duration": "16 h of LPS stimulation, after 2 days of siRNA transfection", "treatment": "bacterial lipopolysaccharide (Salmonella minnesota R595), 10 ng/ml", "measurement": "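Nuclear mCherry signal of the Tnf promoter reporter measured by imaging after background removal, scaled to each plate median and turned into robust z-scores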", "reading the numbers": "Tnf reporter robust z-score: higher = stronger Tnf promoter reporter signal after LPS", "rule for the call": "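Called active when robust z-score is at most -1.3, matching the median of the Tlr4 knock-down control, or over 3; control wells and wells with under 50 cells never active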", "calls": "active = Tnf reporter clearly lowered or raised; inactive = no clear change in Tnf reporter", "note": "This is one part, drawn at random, of about 17,000 deposited reagents. Over the whole deposit, about 1,110 (6.6%) are marked active. 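Active means lowered or raised reporter signal; replicate intensities are raw and not normalised per plate.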 Entries without a mark were called inactive. Not all columns of the deposit are shown."}
{"target gene":"Cdhr4","PubChem SID":"SID315481246","Tnf reporter robust z-score":0.55,"fewer than 50 cells in well":"enough cells in well"}
{"target gene":"Or1e30","PubChem SID":"SID315480033","Tnf reporter robust z-score":0.58,"fewer than 50 cells in well":"enough cells in well"}
{"target gene":"Tslp","PubChem SID":"SID315471080","Tnf reporter robust z-score":-0.57,"fewer than 50 cells in well":"enough cells in well"}
{"target gene":"Pnliprp2","PubChem SID":"SID315468610","Tnf reporter robust z-score":-0.74,"fewer than 50 cells in well":"enough cells in well"}
{"target gene":"Orc4","PubChem SID":"SID315470403","Tnf reporter robust z-score":0.86,"fewer than 50 cells in well":"enough cells in well"}
{"target gene":"Rsl1d1","PubChem SID":"SID315472426","Tnf reporter robust z-score":0.82,"fewer than 50 cells in well":"enough cells in well"}
{"target gene":"Ldhal6b","PubChem SID":"SID315476546","Tnf reporter robust z-score":-0.56,"fewer than 50 cells in well":"enough cells in well"}
{"target gene":"Ttk","PubChem SID":"SID315469865","fewer than 50 cells in well":"fewer than 50 cells per well; well left out of calls"}
{"target gene":"Or13a18","PubChem SID":"SID315468315","Tnf reporter robust z-score":0.28,"fewer than 50 cells in well":"enough cells in well"}
{"target gene":"Vwa2","PubChem SID":"SID315479516","Tnf reporter robust z-score":-1.12,"fewer than 50 cells in well":"enough cells in well"}
{"target gene":"Rspo3","PubChem SID":"SID315474627","Tnf reporter robust z-score":2.14,"fewer than 50 cells in well":"enough cells in well"}
{"target gene":"Fancc","PubChem SID":"SID315466622","Tnf reporter robust z-score":0.34,"fewer than 50 cells in well":"enough cells in well"}
{"target gene":"Frmd4a","PubChem SID":"SID315477608","Tnf reporter robust z-score":-0.28,"fewer than 50 cells in well":"enough cells in well"}
{"target gene":"Tango6","PubChem SID":"SID315480971","Tnf reporter robust z-score":0.91,"fewer than 50 cells in well":"enough cells in well"}

An excerpt of the results above, as a working copy:
{"target gene":"Or1e30","PubChem SID":"SID315480033","Tnf reporter robust z-score":0.58,"fewer than 50 cells in well":"enough cells in well"}
{"target gene":"Tslp","PubChem SID":"SID315471080","Tnf reporter robust z-score":-0.57,"fewer than 50 cells in well":"enough cells in well"}
